Values of other authors in patent US12643893B2, “Heteroaryl-pyridinium compound and redox flow battery comprising the same” (Korea Advanced Institute of Science and Technology, priority 2021, dated 2026).
Some of these results come from one statement about several compounds together.

Settings: background, previously reported materials; cited from earlier work

SMILES	redox potential
O=C1c2ccccc2-c2ccccc21 [Example 9-fluorenone, 9-fluorenone]	−1.5˜−2.0 V vs. Fc/Fc^+
CN1C(=O)c2ccccc2C1=O [N-methylphthalimide]	−1.5˜−2.0 V vs. Fc/Fc^+
